Measurements taken from PubChem BioAssay AID1508600 (Functional Genomics Laboratory (NCATS/FGL), 2020).
Screen size: about 53,000 sequences; about 3,700 (7%) were called active.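 Rule for the calls: active = gene knockdowns whose robust z-score for IL-1 alpha signal is at least 2 or at most -2, so actives lie on both sides; inactive = the rest.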 Some of the results follow.

assay: Components of the Cytosolic LPS Sensing Pathway: Gene Identification via Genome-wide siRNA Screen; settings: RAW264.7 macrophages, IL-1a HTRF, actives lie on both sides, screened at 100 nM (by protocol), cells primed 5 h with Pam3CSK4 first;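 note: robust z of the log signal after scaling to non-targeting control siRNA wells of the plate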
Method in brief: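 Supernatant IL-1a by HTRF from RAW264.7 cells primed with Pam3CSK4 (5 hours) and transfected with LipidA (24 hour) after 48h siRNA knockdown at 100 nM; cell viability checked with CellTiter-Glo.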

| Sequence | z-score |
| --- | --- |
| GGGUUAUUCUACGAAUGCUTT against Thumpd1 | inactive: -1.9 |
| CCACCUCAGCUCUUGUGAUTT against H2-Ab1 | inactive: -0.598 |
| GGGUGCAUGUGUCAGAUUUTT against Olfr1277 | inactive: 0.163 |
| CCAUCAACCAAUCAUACAGTT against Ints6 | inactive: 1.17 |
| GCAGUAACCUUCUAACAAATT against Foxn2 | inactive: -0.367 |
| GGGAGCCAAUGAAAUCAAGTT against Hmbox1 | active: 3.31 |
| GGCAGUCGGGAUUGUAAAATT against Gpr3 | inactive: -0.994 |
| GCUACACCGUAACAUGCUATT against Zer1 | active: 2.19 |
| GGCUAUGCAGAUAAAUAUGTT against Lctl | inactive: -1.09 |
| GGACACCAACAUAUUGUUCTT against Slc13a2 | inactive: -0.128 |
| GCGGUGUGAAGAUUGUACATT against Hsd17b3 | inactive: 0.937 |
| GGGUUAGACGAAGAUGAGATT against Psme3ip1 | inactive: -1.06 |
| CGAUAGUUUACAUGCUGAATT against Prr36 | inactive: 0.412 |
| CAUAAAGGUGGCACUAAUATT against Cnrip1 | inactive: -0.842 |
| GGUCUUGGAUGCAAACGAUTT against Pcdhga2 | inactive: 0.518 |
| GCAUGAAGGACUUUCGAAGTT against Tmem242 | inactive: 0.152 |
| CCGCAUAUUUCAAUAAAUCTT against Rpl4 | inactive: -0.703 |
| GGUUCUUCCCAGAAGGAGGTT against Pramel12 | inactive: 0.588 |
| GGAGUUUAUCUUCAAGCAGTT against Tcp11 | inactive: 0.815 |
| CCGAAUAAAGAUUCAUUCATT against Plin2 | inactive: 0.455 |
| GGCUUCCUGACUGUUCAGATT against Vmn1r25 | inactive: -0.292 |
| CCUUAGUAACAGCACUAGCTT against Lrfn2 | inactive: -0.228 |

Some of the entries above, reformatted.
Sequence,z-score
CCACCUCAGCUCUUGUGAUTT against H2-Ab1,inactive: -0.598
GGGAGCCAAUGAAAUCAAGTT against Hmbox1,active: 3.31

The listing continues.

| Sequence | z-score |
| --- | --- |
| GGCAAAAAACAAAGACCUUTT against Prl7d1 | inactive: -0.0334 |
| CCUUUAUCUUGGGAAUUGGTT against Pik3ca | inactive: -0.854 |
| CCCUCCACUCCGUUUUUAUTT against Stim2 | inactive: -0.43 |
| GGUCGAGCAGAGUUGAAUCTT against Tars | inactive: -1.34 |
| CCUAUUCUAUGAUGCACCCTT against Cyp2f2 | inactive: 0.145 |
| GGUUCUUGAUGAAAAUCUATT against Acox1 | inactive: 0.965 |
| CAGUGAUCGUCAUAGCCAUTT against Olfr478 | inactive: 0.135 |
| GCCUCGAGAUAUUCUUUGUTT against Snrnp200 | active: -2.07 |
| GGAACAUGUUUGAGUUUAATT against Ints11 | inactive: -0.409 |
| GGAAAUGAUGAGCAAGUUATT against Dcaf5 | inactive: -1.18 |
| GGUCCAAGAAGACAAUGCUTT against Cga | inactive: -0.102 |
| CCGGUUCACUGCUUGACCUTT against Wbp1 | inactive: 0.87 |
| GCCUUUAUAGGAUUUCAAATT against Ppp2r5e | inactive: 0.678 |
| GGUAACGGGACCAACACUUTT against Otop3 | inactive: 1.26 |
| GGAUCUUUACUGCUUUGUGTT against Picalm | active: 2.42 |
| GGACUUCAAGUACGUGCUGTT against P2ry2 | inactive: 1.9 |
| GGCAGAGGAGUCCUGUAAATT against Kat2b | inactive: -1.63 |
| CGCAGAACGUGAACACCAATT against Smad3 | active: -2.47 |
| GGGCCACAAGCCUUCUAUUTT against Acvr2b | inactive: -1.03 |
| CCAGACUUAUGACAACAAATT against Colec12 | inactive: 0.406 |
| CGGGCUAUAUUACCUUGGCTT against Phf19 | inactive: 0.0765 |
| GGACACCUCAUGAAGUAAUTT against Sav1 | inactive: -0.04 |

Individual results from above:
For z-score, CCCUCCACUCCGUUUUUAUTT against Stim2 is entered as inactive: -0.43
For z-score, GGUCGAGCAGAGUUGAAUCTT against Tars is entered as inactive: -1.34
For z-score, GGUAACGGGACCAACACUUTT against Otop3 is entered as inactive: 1.26

(cont.)

| Sequence | z-score |
| --- | --- |
| CCUUCAUUCUCAUGUGACCTT against Psat1 | inactive: -1.2 |
| CCCACUUACUUUUGAUGUUTT against Uba1 | inactive: -0.232 |
| GGAGAAGCUCAUCUCUCUGTT against Rfx2 | inactive: -1.35 |
| CGAAAACUUCAUAGCUACATT against Hmg20a | inactive: -1.95 |
| CCUUUUAGGCUUCCAGAAUTT against Mfsd10 | inactive: -0.236 |
| GCAAUGAGUGCUAGUUUUUTT against Cdc42 | active: 2.6 |
| GCCAUCAAUGAUGUGCUCUTT against Zswim5 | inactive: -0.186 |
| GGAACCAGUAUCCUGACAUTT against Prop1 | inactive: -0.592 |
| GGAUUUAGGCUACUUUUUCTT against Art4 | inactive: -0.387 |
| GCCCUGGCAAAAGAUACCATT against Cidec | inactive: -0.323 |
| GGCAACAGUACCAAAGACATT against Rps24 | inactive: 0.483 |
| GGCUUUACGUGACAAAGAUTT against 4933430I17Rik | inactive: 0.266 |
| GGAAGAAAUACAGAAUAACTT against Npr3 | inactive: 0.388 |
| GGAUGAGGACGAGUUCGUUTT against Ppm1n | inactive: 0.361 |
| CCUGAUAGGACCUAAUUGATT against Tom1 | inactive: -1.85 |
| GCUCAUGAUCAUAUCAUGATT against 1810055G02Rik | inactive: 0.647 |
| GAAGAUUAUCCAUUGCCCGTT against Lce1h | inactive: 0.689 |
| GGAAUGCUUAGUGAAAUUUTT against Ahctf1 | inactive: 0.481 |
| GGCAGAAAGAUUAUGAGUUTT against Gpr171 | active: 2.35 |
| GGGUCUCAAACUAAAUACUTT against Rangap1 | inactive: 0.538 |
| CCGAGGAUGGCCACAUAUGTT against Prss30 | inactive: -0.0711 |
| GCAGUUGAGUCCACCUCAATT against Ccdc187 | active: 2.18 |

| Sequence | z-score |
| --- | --- |
| GGCCUUUGUGUAUAUCUAUTT against Vmn1r85 | inactive: 1.7 |
| GGAAGGAAGAGAAAAACAATT against Slu7 | inactive: -0.188 |
| GGGACUACCUCAUGUCAUUTT against Smad1 | inactive: 0.632 |
| CCCAGGUUCCGGAGAACAATT against Abcc5 | active: 2.14 |
| GGUUGACAUGAGUAACAUATT against Dlst | inactive: 0.588 |
| GGAUUUCAAAUCCUUCCUGTT against Shmt2 | inactive: 0.263 |
| GCAGAGGAGUGAAUAGAUATT against Dtx3l | inactive: 0.45 |
| UUCUACGUCUGUCUUCUUATT against Olfr180 | inactive: -0.211 |
| GGAAGCUACAAAAAACCUCTT against Luzp1 | inactive: 1.63 |
| GCGAAUGAUUGUCAGCAAATT against Gata1 | inactive: 0.304 |
| GGGUAACUAGAAACAGACUTT against Olfr1351 | inactive: -0.152 |
| GGAACUUCUCUGUUUUAGATT against Olfr802 | inactive: -1.87 |
| GCAAUUGAAGCAAUUGACUTT against Otud6b | inactive: -1.21 |
| GGGUGUGCAUUUGUACUACTT against Smad9 | inactive: 1.21 |
| GCUGCUAAGUGAAUCCAACTT against Ppfia3 | inactive: 0.379 |
| CCUUGCUCUGGCAAUCUGATT against G930045G22Rik | inactive: 1.04 |
| GGCUCUUAGGACGUGUAUATT against Med31 | inactive: -0.411 |
| GGUCAACUUUGGCCUCUAUTT against Gpr142 | inactive: 0.469 |
| GCUCCUAGUGUUUUUGUGGTT against Rplp0 | active: -2.91 |
| GGAGCCAUUGUGAAUGUCUTT against Dcxr | inactive: -0.893 |
| GGUGGUCUUCAAGUCUGACTT against Cdcp2 | inactive: 1.95 |
| GCUACUCUUUGUCUCAUGUTT against Hexb | inactive: -0.826 |

| Sequence | z-score |
| --- | --- |
| GGAUUUUAGCUCUGAUUCATT against Thsd7b | inactive: 0.509 |
| GCUAGUUAUCUAAUCUCUGTT against Nuak1 | active: 2.79 |
| CCAAGUACAUACUUCUCAUTT against Tbx4 | inactive: -1.07 |
| GCGCAUCCUAUUUUGAGAATT against Snx6 | inactive: -0.78 |
| CCGGAAACUUCCUACGUGUTT against Cbln1 | inactive: -0.424 |
| GGAGUUCCUAUGAUCAAAUTT against Sgf29 | inactive: 0.509 |
| CCCUAAGUAUAGGAUCGGATT against Macroh2a1 | inactive: -1.07 |
| GCUGGAAUAUCAUUUCCCATT against Pdpk1 | inactive: -1.01 |
| GCUAUUGGAGGAAUGUAUCTT against Rasgrp4 | inactive: -1.51 |
| GGAGAGACAGCAGUGAACATT against Dvl2 | inactive: 0.43 |
| CCAUUUCAAGCUCGAUAUGTT against Pde7b | inactive: 0.441 |
| GGCCAUCUUCCGAUUCUCUTT against Scn4a | inactive: -1.14 |
| CCGGAUCCAGAAUACAUUATT against Aff3 | inactive: 1.03 |
| GCACGCGCACCUACAAAAUTT against Sostdc1 | inactive: 0.552 |
| GCUAGGGAUUUACCUCUUCTT against Gpr65 | inactive: 0.743 |
| GUUGCCAGAUUUGGAUAUUTT against Abcg5 | inactive: 0.664 |
| GAUGGGACAGUAAAACAAATT against Klra3 | inactive: -0.981 |
| GGCCCAGAAGAUGAUGAGATT against Kcne1l | inactive: -0.412 |
| GCUGAAGUUACCAUAACCCTT against Cd84 | inactive: 0.139 |
